Data on three sequences can be found in publication PMC4714197, “The Tomato Nucleotide-binding Leucine-rich Repeat Immune Receptor I-2 Couples DNA-binding to Nucleotide-binding Domain Nucleotide Exchange” (The Journal of Biological Chemistry, 2015).

Series [1] addresses T1, I-2 CC-NB-ARC WT (I-2 1-519) (Solanum lycopersicum (tomato)) (UniProt Q9XET3).
T1 sequence (looked up): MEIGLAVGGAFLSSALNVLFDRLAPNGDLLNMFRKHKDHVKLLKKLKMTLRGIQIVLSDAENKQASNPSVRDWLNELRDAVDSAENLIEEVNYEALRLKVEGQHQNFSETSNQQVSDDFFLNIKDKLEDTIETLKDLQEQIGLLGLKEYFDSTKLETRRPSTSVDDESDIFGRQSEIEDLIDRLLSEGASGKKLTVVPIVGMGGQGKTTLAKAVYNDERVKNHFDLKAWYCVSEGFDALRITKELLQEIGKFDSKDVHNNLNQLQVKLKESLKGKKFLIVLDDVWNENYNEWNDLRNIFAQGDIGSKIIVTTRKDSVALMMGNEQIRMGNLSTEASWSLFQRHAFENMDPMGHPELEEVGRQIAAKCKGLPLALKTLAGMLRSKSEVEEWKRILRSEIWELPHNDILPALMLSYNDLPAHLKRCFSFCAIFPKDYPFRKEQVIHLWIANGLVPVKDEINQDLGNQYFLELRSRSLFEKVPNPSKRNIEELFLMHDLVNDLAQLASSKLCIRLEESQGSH
Kind of series: EMSA. The conditions noted are these: EMSA: 20 mM Tris-HCl pH 8.0, 60 mM NaCl, 2 mM EDTA, 1 mM DTT, 10% glycerol, 0.1 mg/ml BSA, 0.15 nM nucleic acid, recombinant protein, residues 1-519, label: 32P end label. (In EMSA bound probe runs differently from free probe, usually more slowly.)

Series [2] has as its target T1, I-2 CC-NB-ARC WT (I-2 1-519) (Solanum lycopersicum (tomato)). Kind of series: steady-state and time-resolved FRET. The conditions noted are these: 1.5 uM protein, DNA bending; recombinant protein; residues 1-519; label: fluorescein and TAMRA end labels.
Series [3] deals with T2, I-2 CC-NB-ARC K207R (Solanum lycopersicum (tomato)) (UniProt Q9XET3).
T2 sequence (looked up): T1 sequence (looked up) with K207R
Briefly: EMSA. The conditions noted are these: 10 mM ZnCl2 (so in the source), same effect as WT, EMSA: 20 mM Tris-HCl pH 8.0, 60 mM NaCl, 2 mM EDTA, 1 mM DTT, 10% glycerol, 0.1 mg/ml BSA, 0.15 nM nucleic acid, recombinant protein, residues 1-519, label: 32P end label.

For series [4], the target named is T3, I-2 CC-NB-ARC S233F (Solanum lycopersicum (tomato)) (UniProt Q9XET3).
T3 sequence (looked up): T1 sequence (looked up) with S233F
Briefly: EMSA. The conditions noted are these: 5 uM ADP, 10 mM ZnCl2 (so in the source); EMSA: 20 mM Tris-HCl pH 8.0, 60 mM NaCl, 2 mM EDTA, 1 mM DTT, 10% glycerol, 0.1 mg/ml BSA, 0.15 nM nucleic acid; recombinant protein; residues 1-519; label: 32P end label.

Substitutions are numbered along the chain they refer to. Tags and fusion partners may be left off the protein sequences shown. For at least one entry, the source does not settle the construct or the ends of the probe. For part of these data: A weaker result is weaker than the reference pair of the same experiment. For part of these data: At least one verdict rests on a figure or table, not on a statement of the authors. For part of these data: Whether high values mean tight binding is not given here for every scale.

For “UGGGUCAACGUGGGCAAAGAUGUCCUAGCAAUGUAAUCGUCUAUGACGUU [ssRNA sense strand (50 nt)]”, the Kd in series [1] (apparent Kd, text says reduced affinity) was above 100 µM.

On to “TGGGTCAACGTGGGCAAAGA (double strand) [SS1s/SS2s dsDNA (20 bp), FRET]”, for which the binding result in series [2] is listed as “binds”.

As to “TGGGTCAACGTGGGCAAAGATGTCCTAGCAATGTAATCGTCTATGACGTT (double strand) [SS1/SS2 dsDNA (50 bp)]”, the binding result in series [3] (5 uM ADP) is “binds more weakly”; in series [3] (5 uM beta,gamma-imido ATP) it was “binds”. Further, in series [4], the binding signal (% of binding with 5 uM ATP) amounted to 61. Besides, in series [1] (5 uM ADP, 10 mM ZnCl2 (so in the source)), the binding signal (ratio to no nucleotide) stood at 0.65.
